Repeats are few or missing, and single values can be far off.
Compound: [O-][N+](C(C1=C(C(O)=C2)NC(C(C=C3)=CC=C3Cl)C4C1C=CC4)=C2Cl)=O
Test: melting temperature shift (compound 7 minus DMSO); higher = compound stabilises the protein
Conditions: 10 µM
Description: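 Thermal proteome profiling (TMT mass spectrometry) in intact DAOY medulloblastoma cells or DAOY lysates treated with 10 µM compound 7 or DMSO, heated at 10 temperatures from 40.5 to 73.8 °C for 3 min. Melting curves were fitted with the Bioconductor TPP package, and the melting point difference between compound and vehicle is reported per protein (single curve per condition).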

Amino acid sequences for entries named in this document (tags omitted). A change or cut given only in a name is not applied to a line headed by its entry.
UniProt Q6ZVM7: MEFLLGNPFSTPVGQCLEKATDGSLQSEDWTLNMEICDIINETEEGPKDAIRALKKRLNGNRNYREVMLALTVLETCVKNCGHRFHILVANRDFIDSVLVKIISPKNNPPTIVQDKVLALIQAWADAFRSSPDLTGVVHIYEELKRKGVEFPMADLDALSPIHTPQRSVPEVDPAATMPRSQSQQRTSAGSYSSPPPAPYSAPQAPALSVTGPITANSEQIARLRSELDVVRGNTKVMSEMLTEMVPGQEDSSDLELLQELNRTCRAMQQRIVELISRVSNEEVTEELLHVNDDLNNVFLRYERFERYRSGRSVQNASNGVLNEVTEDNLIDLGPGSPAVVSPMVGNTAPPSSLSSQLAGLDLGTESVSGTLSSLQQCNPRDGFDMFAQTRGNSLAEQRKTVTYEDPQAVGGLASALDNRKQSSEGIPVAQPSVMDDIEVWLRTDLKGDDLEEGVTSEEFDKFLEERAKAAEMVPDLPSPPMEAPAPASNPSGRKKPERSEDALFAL
UniProt P50213: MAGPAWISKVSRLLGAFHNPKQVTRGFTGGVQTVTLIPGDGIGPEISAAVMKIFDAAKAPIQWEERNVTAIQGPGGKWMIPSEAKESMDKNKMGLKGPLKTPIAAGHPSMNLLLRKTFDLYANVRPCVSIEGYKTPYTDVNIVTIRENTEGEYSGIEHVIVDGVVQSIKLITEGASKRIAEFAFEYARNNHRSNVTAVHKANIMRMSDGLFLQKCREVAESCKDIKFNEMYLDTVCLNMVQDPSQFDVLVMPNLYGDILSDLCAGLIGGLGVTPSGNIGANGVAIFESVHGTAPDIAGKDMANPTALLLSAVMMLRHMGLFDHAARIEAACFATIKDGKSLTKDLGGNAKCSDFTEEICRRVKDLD
UniProt Q9Y639: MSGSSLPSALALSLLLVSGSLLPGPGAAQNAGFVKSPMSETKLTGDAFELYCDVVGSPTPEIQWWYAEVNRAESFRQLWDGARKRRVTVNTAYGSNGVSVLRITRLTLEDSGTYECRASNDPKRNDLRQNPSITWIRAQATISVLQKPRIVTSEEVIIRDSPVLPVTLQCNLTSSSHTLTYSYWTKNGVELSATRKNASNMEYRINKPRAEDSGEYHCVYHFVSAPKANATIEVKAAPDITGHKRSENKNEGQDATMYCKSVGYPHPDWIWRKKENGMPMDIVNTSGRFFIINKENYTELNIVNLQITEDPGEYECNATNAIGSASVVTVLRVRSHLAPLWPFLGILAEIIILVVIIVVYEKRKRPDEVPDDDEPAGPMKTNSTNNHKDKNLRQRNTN
UniProt P62306, whole entry, looked up: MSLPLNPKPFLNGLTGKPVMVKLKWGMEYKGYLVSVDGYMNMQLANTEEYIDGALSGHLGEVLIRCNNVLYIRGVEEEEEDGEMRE
UniProt Q15528: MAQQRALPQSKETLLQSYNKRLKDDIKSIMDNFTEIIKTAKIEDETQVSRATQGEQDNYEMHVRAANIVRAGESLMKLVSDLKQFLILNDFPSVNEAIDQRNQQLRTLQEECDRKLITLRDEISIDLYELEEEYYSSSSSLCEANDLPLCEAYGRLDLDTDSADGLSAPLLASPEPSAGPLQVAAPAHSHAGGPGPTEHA
UniProt Q15369, whole entry: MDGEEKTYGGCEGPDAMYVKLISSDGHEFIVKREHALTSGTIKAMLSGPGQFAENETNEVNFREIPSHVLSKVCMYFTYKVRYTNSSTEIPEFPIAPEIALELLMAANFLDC
UniProt O00189: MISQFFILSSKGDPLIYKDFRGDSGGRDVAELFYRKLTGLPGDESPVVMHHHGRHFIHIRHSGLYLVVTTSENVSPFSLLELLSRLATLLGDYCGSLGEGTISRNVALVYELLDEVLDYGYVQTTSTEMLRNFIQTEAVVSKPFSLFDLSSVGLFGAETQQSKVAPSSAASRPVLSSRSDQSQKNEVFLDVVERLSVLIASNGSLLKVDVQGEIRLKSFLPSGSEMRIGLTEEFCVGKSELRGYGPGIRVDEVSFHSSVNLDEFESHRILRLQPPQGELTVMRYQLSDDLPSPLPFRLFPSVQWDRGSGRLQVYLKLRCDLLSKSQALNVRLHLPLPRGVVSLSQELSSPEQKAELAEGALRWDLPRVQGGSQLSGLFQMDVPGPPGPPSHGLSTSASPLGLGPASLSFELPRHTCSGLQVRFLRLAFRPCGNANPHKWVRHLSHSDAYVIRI
UniProt Q9UMR2: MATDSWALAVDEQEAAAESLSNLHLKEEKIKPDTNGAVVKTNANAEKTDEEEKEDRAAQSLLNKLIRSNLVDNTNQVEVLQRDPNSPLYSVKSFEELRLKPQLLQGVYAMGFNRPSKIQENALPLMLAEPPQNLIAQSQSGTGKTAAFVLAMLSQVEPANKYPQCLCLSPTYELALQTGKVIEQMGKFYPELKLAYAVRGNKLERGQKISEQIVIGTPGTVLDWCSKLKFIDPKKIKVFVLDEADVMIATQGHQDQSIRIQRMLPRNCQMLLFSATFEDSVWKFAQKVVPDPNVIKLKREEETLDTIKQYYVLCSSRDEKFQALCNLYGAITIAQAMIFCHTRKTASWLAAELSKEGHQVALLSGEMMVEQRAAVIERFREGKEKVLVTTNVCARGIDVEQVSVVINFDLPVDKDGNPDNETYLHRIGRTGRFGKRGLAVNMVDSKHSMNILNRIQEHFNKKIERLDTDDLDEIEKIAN
UniProt Q9HB65: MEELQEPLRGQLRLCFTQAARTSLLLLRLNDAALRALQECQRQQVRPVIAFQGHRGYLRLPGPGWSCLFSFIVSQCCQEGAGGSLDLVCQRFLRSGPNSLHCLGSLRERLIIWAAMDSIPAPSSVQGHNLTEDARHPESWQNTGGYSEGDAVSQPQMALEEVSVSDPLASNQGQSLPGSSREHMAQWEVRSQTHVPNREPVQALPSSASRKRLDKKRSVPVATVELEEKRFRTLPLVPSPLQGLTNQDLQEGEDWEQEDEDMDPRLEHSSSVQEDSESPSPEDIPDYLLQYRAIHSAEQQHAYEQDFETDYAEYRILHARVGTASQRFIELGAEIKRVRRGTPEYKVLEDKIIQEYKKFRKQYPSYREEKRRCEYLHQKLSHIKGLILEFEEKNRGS
UniProt Q9UNX4: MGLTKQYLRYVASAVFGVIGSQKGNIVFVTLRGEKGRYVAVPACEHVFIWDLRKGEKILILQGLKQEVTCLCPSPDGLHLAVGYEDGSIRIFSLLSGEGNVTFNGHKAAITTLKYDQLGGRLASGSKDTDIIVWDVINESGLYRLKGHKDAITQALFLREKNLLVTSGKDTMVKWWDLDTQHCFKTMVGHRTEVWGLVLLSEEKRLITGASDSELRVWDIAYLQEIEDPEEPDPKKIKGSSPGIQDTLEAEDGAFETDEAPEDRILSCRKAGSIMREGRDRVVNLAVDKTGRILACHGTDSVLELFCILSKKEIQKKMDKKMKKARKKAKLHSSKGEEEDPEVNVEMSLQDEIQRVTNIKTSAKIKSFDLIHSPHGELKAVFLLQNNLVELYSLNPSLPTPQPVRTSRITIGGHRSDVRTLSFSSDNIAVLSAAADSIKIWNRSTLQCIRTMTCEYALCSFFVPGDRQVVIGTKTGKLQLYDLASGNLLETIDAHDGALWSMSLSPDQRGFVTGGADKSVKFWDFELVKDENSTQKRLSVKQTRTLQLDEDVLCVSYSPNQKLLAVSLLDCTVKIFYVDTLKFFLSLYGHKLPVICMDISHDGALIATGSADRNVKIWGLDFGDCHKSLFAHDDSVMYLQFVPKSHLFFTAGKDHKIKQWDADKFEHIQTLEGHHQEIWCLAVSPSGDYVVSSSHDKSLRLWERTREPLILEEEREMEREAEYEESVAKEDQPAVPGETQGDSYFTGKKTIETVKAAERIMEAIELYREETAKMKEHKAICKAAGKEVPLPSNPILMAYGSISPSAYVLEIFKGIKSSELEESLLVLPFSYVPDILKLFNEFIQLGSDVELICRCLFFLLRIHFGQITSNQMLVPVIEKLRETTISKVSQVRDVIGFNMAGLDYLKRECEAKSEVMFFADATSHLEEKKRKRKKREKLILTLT
UniProt Q5T1M5: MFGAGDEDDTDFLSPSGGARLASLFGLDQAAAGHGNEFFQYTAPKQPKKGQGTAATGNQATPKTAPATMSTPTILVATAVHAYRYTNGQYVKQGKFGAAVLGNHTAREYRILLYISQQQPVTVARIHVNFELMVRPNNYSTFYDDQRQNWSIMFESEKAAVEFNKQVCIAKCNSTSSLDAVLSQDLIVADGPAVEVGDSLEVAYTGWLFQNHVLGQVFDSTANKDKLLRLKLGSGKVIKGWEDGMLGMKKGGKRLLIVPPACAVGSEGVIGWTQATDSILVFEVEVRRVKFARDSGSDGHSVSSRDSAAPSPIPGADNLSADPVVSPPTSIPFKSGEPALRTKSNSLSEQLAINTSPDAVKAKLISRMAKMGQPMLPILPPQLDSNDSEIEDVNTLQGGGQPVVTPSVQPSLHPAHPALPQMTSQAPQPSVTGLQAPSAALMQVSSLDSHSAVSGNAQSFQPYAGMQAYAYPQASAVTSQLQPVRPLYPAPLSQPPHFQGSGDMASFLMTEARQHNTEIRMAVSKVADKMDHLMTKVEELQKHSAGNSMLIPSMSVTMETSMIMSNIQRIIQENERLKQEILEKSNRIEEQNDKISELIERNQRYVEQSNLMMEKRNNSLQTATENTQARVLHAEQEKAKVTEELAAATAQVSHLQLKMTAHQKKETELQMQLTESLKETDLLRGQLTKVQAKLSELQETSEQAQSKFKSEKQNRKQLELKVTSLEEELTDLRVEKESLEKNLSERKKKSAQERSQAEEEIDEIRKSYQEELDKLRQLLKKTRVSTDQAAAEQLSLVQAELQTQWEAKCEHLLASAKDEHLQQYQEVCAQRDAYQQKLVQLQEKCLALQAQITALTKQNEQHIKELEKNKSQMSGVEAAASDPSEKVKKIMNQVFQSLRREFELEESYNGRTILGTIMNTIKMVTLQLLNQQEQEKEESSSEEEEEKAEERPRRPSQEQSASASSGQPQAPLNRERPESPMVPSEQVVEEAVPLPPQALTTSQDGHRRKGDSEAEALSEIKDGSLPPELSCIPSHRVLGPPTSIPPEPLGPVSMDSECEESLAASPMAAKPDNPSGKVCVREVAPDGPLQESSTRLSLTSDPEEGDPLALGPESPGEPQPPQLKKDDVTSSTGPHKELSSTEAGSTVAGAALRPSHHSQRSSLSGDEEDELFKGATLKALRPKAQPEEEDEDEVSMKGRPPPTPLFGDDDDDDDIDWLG
UniProt Q9Y6W5, whole entry: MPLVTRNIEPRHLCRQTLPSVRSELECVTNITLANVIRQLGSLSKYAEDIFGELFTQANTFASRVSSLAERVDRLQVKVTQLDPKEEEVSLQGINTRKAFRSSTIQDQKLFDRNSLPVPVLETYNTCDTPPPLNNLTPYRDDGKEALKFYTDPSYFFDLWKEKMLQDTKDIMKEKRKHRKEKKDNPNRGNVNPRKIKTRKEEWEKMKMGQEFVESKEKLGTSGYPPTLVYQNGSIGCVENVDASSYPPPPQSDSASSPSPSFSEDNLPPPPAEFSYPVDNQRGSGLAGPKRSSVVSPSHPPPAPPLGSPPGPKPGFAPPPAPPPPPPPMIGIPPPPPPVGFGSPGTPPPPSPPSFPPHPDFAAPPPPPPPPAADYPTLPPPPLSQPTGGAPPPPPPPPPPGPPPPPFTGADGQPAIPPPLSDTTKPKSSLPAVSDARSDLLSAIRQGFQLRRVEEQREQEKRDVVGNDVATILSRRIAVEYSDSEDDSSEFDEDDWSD
UniProt P57740: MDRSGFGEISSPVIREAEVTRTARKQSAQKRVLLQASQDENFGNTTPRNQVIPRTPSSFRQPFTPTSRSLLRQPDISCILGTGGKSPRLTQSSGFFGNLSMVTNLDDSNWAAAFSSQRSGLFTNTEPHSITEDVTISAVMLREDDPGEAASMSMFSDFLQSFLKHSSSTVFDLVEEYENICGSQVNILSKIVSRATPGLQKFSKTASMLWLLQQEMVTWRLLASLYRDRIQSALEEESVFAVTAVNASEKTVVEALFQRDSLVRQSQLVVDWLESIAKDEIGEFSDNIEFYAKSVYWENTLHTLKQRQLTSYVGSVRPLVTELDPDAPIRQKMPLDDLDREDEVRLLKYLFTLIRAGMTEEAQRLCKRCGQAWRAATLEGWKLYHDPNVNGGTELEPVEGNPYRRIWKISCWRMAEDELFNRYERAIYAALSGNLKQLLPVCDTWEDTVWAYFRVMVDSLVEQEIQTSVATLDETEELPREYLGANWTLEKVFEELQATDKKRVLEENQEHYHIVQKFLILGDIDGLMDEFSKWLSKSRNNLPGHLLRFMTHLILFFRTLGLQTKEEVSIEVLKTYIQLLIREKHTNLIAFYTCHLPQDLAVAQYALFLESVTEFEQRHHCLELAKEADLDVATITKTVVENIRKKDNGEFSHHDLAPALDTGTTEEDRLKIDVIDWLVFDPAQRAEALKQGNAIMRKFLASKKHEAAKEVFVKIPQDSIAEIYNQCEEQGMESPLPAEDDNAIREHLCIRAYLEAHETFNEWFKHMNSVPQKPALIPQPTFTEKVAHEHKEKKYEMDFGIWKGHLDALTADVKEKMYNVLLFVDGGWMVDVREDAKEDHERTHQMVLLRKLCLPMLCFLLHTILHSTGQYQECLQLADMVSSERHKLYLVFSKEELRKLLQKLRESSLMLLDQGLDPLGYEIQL

[1] = system: DAOY cell lysate, treatment time: 20 min, 4 °C
[2] = system: intact DAOY cells, treatment time: 90 min, 37 °C

Target	melting temperature shift [1] [°C]	melting temperature shift [2] [°C]
MTHFD1L (UniProt Q6UB35)	-1.02	-2.24
UniProt P05408	–	0.28
UniProt Q6PEW1	–	-0.508
FOXK1 (UniProt P85037)	0.0897	-1.47
TOM1L2 (UniProt Q6ZVM7)	-0.323	-0.0488
ACSL3 (UniProt O95573)	0.941	-1.17
UniProt A6NHG4	–	0.078
UniProt P81133	–	0.208
UniProt O14957	1.61	–
HSF1 (UniProt Q00613)	-0.897	–
GLUL (UniProt P15104)	-2.12	7.22
ESYT2 (UniProt A0FGR8)	0.904	-0.945
GLS (UniProt O94925)	0.132	-1.59
UniProt P25774	1.49	-1.8
UniProt Q9BWQ6	-0.997	–
IDH3A (UniProt P50213)	1.3	-0.615
PCBP1 (UniProt Q15365)	-0.579	-1.01
KIF23 (UniProt Q02241)	-0.739	-1.67
RRM2B (UniProt Q7LG56)	0.82	-0.467
PDCD2 (UniProt Q16342)	0.337	-0.801
CORO1C (UniProt Q9ULV4)	-0.252	1.06
AP1B1 (UniProt Q10567)	-0.301	0.925
ANKRD17 (UniProt O75179)	-0.184	-0.263

Some values from above:
UniProt Q9BWQ6 | melting temperature shift [1] [°C]: -0.997
CORO1C (UniProt Q9ULV4) | melting temperature shift [2] [°C]: 1.06
UniProt P05408 | melting temperature shift [2] [°C]: 0.28
GLS (UniProt O94925) | melting temperature shift [1] [°C]: 0.132
KIF23 (UniProt Q02241) | melting temperature shift [1] [°C]: -0.739

The list goes on.

Target	melting temperature shift [1] [°C]	melting temperature shift [2] [°C]
TARS2 (UniProt Q9BW92)	-0.00918	-0.963
SPATA5L1 (UniProt Q9BVQ7)	-1.59	1.05
COMMD5 (UniProt Q9GZQ3)	-1.1	-0.86
UniProt Q9H1K4	–	-0.824
UniProt Q8TD47	–	-0.64
UniProt Q5T442	0.302	–
NPTN (UniProt Q9Y639)	1.37	–
UniProt Q14160	-0.114	-0.846
OGDH (UniProt Q02218)	0.166	-0.113
MRPL33 (UniProt O75394)	3.66	-2.3
ABCB7 (UniProt O75027)	0.0234	-1.58
NUMA1 (UniProt Q14980)	-0.141	0.376
MRGBP (UniProt Q9NV56)	0.553	-3.61
SNRPF (UniProt P62306)	-1.07	-0.403
TSC1 (UniProt Q92574)	-2.28	–
TBC1D2 (UniProt Q9BYX2)	0.101	-3.46
NUP85 (UniProt Q9BW27)	-0.278	2.79
CEP97 (UniProt Q8IW35)	-0.495	–
GFM2 (UniProt Q969S9)	1.26	-0.683
FBXO22 (UniProt Q8NEZ5)	-0.549	1.02
EIF2S3 (UniProt P41091)	0.15	-0.331
CHURC1 (UniProt Q8WUH1)	0.753	0.509
MED4 (UniProt Q9NPJ6)	-0.574	-0.548

Target	melting temperature shift [1] [°C]	melting temperature shift [2] [°C]
SF3A2 (UniProt Q15428)	0.114	1.31
UniProt Q9BRR3	2.02	–
SEC31A (UniProt O94979)	-0.77	-0.435
NDUFS1 (UniProt P28331)	1.4	-0.853
KLC4 (UniProt Q9NSK0)	5.18	-2.98
COLGALT1 (UniProt Q8NBJ5)	0.617	0.375
WDR70 (UniProt Q9NW82)	0.29	-0.0609
ACAT2 (UniProt Q9BWD1)	0.124	0.834
FANCI (UniProt Q9NVI1)	-0.812	0.524
UniProt Q9BWW4	1.15	–
KCTD5 (UniProt Q9NXV2)	1.68	–
DYNC1H1 (UniProt Q14204)	-0.578	-0.682
UniProt Q15528	0.231	–
DCPS (UniProt Q96C86)	-0.0837	0.0572
SMAP2 (UniProt Q8WU79)	0.513	1.56
MKLN1 (UniProt Q9UL63)	-0.489	1.96
TCEB1 (UniProt Q15369)	-0.163	1.04
UniProt Q9NRZ5	-1.11	–
UniProt P00918	-0.546	–
TMEM109 (UniProt Q9BVC6)	3.6	–
AP4M1 (UniProt O00189)	-0.46	–
CTSZ (UniProt Q9UBR2)	-0.67	-3.78
FECH (UniProt P22830)	-1.18	-0.361

Target	melting temperature shift [1] [°C]	melting temperature shift [2] [°C]
UniProt Q3KRA6	-0.762	0.797
ERGIC2 (UniProt Q96RQ1)	0.516	-2.59
RCHY1 (UniProt Q96PM5)	–	5.62
UniProt Q9BPU6	-0.0197	-2.08
UniProt Q9UMR2	0.429	–
UniProt Q9HB65	–	-0.427
NIPBL (UniProt Q6KC79)	1.13	-2.98
PPP2CB (UniProt P62714)	0.598	0.121
NOTCH2 (UniProt Q04721)	1.17	1.74
ARHGEF11 (UniProt O15085)	-1.02	–
WDR3 (UniProt Q9UNX4)	0.28	–
CIC (UniProt Q96RK0)	1.22	–
CAT (UniProt P04040)	1.06	-0.412
CCT8 (UniProt P50990)	-0.805	-0.4
RXRB (UniProt P28702)	-1.16	–
HNRNPAB (UniProt Q99729)	-0.0274	0.395
PTS (UniProt Q03393)	-0.959	-1.95
SRGAP1 (UniProt Q7Z6B7)	4.3	-0.763
SUCLG1 (UniProt P53597)	0.313	-2.01
ACACA (UniProt Q13085)	-0.576	0.133
UBXN6 (UniProt Q9BZV1)	0.529	–
TUFM (UniProt P49411)	-0.466	-1.68
RNF123 (UniProt Q5XPI4)	0.445	-0.132

Target	melting temperature shift [1] [°C]	melting temperature shift [2] [°C]
FKBP15 (UniProt Q5T1M5)	-0.327	0.758
SMG5 (UniProt Q9UPR3)	-1.12	–
ANXA2 (UniProt P07355)	0.228	0.336
C9ORF78 (UniProt Q9NZ63)	1.14	–
CASP6 (UniProt P55212)	-0.61	-0.14
STAT2 (UniProt P52630)	-0.026	-1.85
GGA3 (UniProt Q9NZ52)	-2.11	-0.573
UniProt Q15012	1.57	–
UniProt Q96AH0	-0.995	0.955
WASF2 (UniProt Q9Y6W5)	0.183	-0.593
PDZD8 (UniProt Q8NEN9)	–	-0.0566
ALDOC (UniProt P09972)	-0.832	0.425
NUP107 (UniProt P57740)	-0.704	-0.306
BOLA2 (UniProt Q9H3K6)	-0.872	-0.204
UniProt Q13478	0.0637	–
GOLGA5 (UniProt Q8TBA6)	0.373	-0.282
BIN1 (UniProt O00499)	-0.713	0.114
SLC35F6 (UniProt Q8N357)	3.4	-9.94
USP16 (UniProt Q9Y5T5)	-1.24	0.179
AGFG2 (UniProt O95081)	-0.384	–
EIF3D (UniProt O15371)	-0.0967	-0.033

Source: the supplement of paper PMC10060354, “Discovery of a small molecule ligand of FRS2 that inhibits invasion and tumor growth” (Cellular Oncology, 2022)
